Data source: PubChem BioAssay AID1259424 (University of Nebraska Medical Center, 2018)

Screen: 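Find knockdowns that reproduce the expression shifts seen after KSR1 loss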 (primary screen)
System: human HCT116 colon cancer cells
Reagents: siRNA pool against human genes, 50 nM
Detection: 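Six signature mRNAs by branched-DNA multiplex assay, scaled to two housekeeping genes and non-targeting median, log2; matched to mean KSR1 knockdown profile by Pearson correlation and euclidean distance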
Scale: mean correlation with KSR1 profile and KSR1 correlation: higher = expression change more like KSR1 knockdown; mean distance from KSR1 profile: higher = expression change less like KSR1 knockdown
In all, the deposit lists about 14,000 reagents; shown is a part drawn at random. 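Higher correlation or smaller distance means closer resemblance to KSR1 loss; control wells, including KSR1 knockdowns, recur on many plates.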 No sequences are given here. Not given: the time to read-out.

| gene | mean correlation with KSR1 profile | mean distance from KSR1 profile | KSR1 correlation, replicate 1 | KSR1 correlation, replicate 2 | KSR1 correlation, replicate 3 |
| --- | --- | --- | --- | --- | --- |
| ZNF277 | -0.538 | 2.31 | -0.512 | -0.551 | -0.535 |
| COASY | 0.704 | 2.04 | 0.782 | 0.833 | 0.11 |
| GALE | 0.432 | 2.68 | 0.388 | 0.517 | 0.459 |
| CST4 | 0.424 | 3.05 | 0.629 | 0.382 | 0.19 |
| STAG3 | 0.302 | 1.66 | 0.255 | 0.01 | 0.417 |
| TOP3B | 0.563 | 3.73 | 0.495 | 0.514 | 0.658 |
| H2AP | -0.319 | 1.27 | 0.096 | -0.575 | -0.675 |
| FAM20B | 0.0137 | 2.43 | 0.201 | -0.232 | 0.106 |
| HSD3B7 | 0.282 | 2.42 | -0.0605 | 0.331 | 0.224 |
| CBLN1 | 0.0332 | 1.85 | 0.43 | -0.00597 | -0.383 |
| ACTR6 | -0.402 | 2.76 | -0.167 | -0.275 | -0.586 |
| KCNK12 | -0.741 | 2.96 | -0.757 | -0.882 | -0.82 |
| LRP6 | -0.324 | 1.81 | -0.194 | -0.169 | -0.487 |
| NSMAF | -0.485 | 1.42 | -0.663 | -0.264 | -0.445 |
| COL8A2 | 0.153 | 1.07 | 0.0305 | -0.153 | 0.544 |
| RBCK1 | -0.548 | 2.89 | -0.64 | -0.441 | -0.63 |
| PNPLA2 | -0.0405 | 2.41 | 0.0126 | -0.474 | 0.408 |
| COX14 | 0.191 | 2.31 | 0.118 | 0.0655 | 0.133 |
| PLXNA3 | -0.913 | 3.17 | -0.907 | -0.973 | -0.8 |
| WNT2 | 0.117 | 2.03 | 0.0556 | 0.0887 | 0.176 |
| GGT1 | 0.221 | 3.2 | 0.291 | 0.108 | 0.242 |
| TNS3 | -0.221 | 4.58 | -0.0278 | -0.241 | -0.233 |
| ATP8B1 | -0.235 | 2.36 | -0.216 | -0.557 | 0.0212 |
| FZD5 | 0.0889 | 2.76 | -0.0105 | 0.0683 | 0.303 |
| CDC25B | -0.601 | 1.88 | -0.472 | -0.634 | -0.552 |
| WDR59 | 0.588 | 1.26 | 0.63 | 0.468 | 0.447 |
| NAPSA | -0.482 | 1.61 | -0.63 | -0.346 | -0.253 |
| TBXAS1 | 0.0235 | 2 | -0.048 | 0.0134 | 0.0723 |
| SYCP3 | -0.179 | 3.76 | 0.0181 | -0.108 | -0.0202 |
| HOXD3 | 0.0811 | 2.12 | 0.408 | -0.0709 | -0.174 |
| ZFR | -0.82 | 1.84 | -0.626 | -0.644 | -0.541 |
| ATAT1 | 0.379 | 1.75 | 0.421 | 0.36 | 0.457 |
| RNGTT | -0.2 | 2.56 | -0.0938 | -0.434 | -0.305 |
| CD244 | 0.331 | 1.82 | 0.396 | 0.304 | 0.306 |
| LINC00260 | -0.309 | 3.2 | -0.55 | -0.1 | -0.541 |
| PIKFYVE | 0.301 | 2.4 | 0.238 | 0.362 | 0.237 |
| PRPF31 | 0.522 | 2.5 | 0.491 | 0.233 | 0.588 |
| SLC14A2 | 0.568 | 0.991 | 0.555 | 0.451 | 0.494 |
| ABCC10 | -0.185 | 2.01 | 0.343 | -0.26 | -0.576 |
| HHIPL1 | 0.432 | 4.65 | 0.37 | 0.511 | 0.288 |
| UPF2 | -0.583 | 1.84 | -0.271 | -0.729 | -0.701 |
| NPC2 | -0.337 | 3.31 | -0.409 | -0.371 | -0.406 |
| SLC4A1AP | 0.177 | 2.35 | 0.0272 | 0.158 | 0.3 |
| DSPP | 0.287 | 2.93 | 0.307 | 0.268 | 0.13 |
| CDC5L | -0.112 | 2.73 | -0.413 | -0.0888 | 0.232 |
| STARD5 | -0.392 | 2.27 | -0.595 | -0.621 | -0.248 |
| SNAP25 | -0.0628 | 2.04 | 0.0948 | -0.105 | -0.17 |
| IL3 | -0.521 | 2.03 | -0.702 | -0.466 | -0.281 |
| NEK7 | 0.317 | 1.38 | 0.322 | 0.433 | 0.422 |
| CCL22 | -0.42 | 2.68 | -0.223 | -0.601 | -0.516 |
| EIF5A | 0.364 | 1.85 | 0.262 | 0.183 | 0.408 |
| PPARGC1B | 0.364 | 1.45 | 0.439 | 0.291 | 0.434 |
| FOXC1 | 0.71 | 1.47 | 0.516 | 0.512 | 0.824 |
| ZBTB10 | -0.391 | 2.79 | -0.254 | -0.426 | -0.299 |
| PAFAH1B1 | -0.439 | 3.22 | -0.422 | -0.389 | -0.396 |
| GAA | -0.705 | 2.52 | -0.721 | -0.759 | -0.812 |
| HBA1 | 0.0764 | 1.67 | -0.513 | 0.0389 | 0.638 |
| WNT10A | -0.216 | 2.71 | -0.0626 | -0.421 | -0.304 |
| TNFSF13 | 0.0681 | 1.63 | 0.112 | -0.0598 | 0.158 |
| IFT57 | -0.299 | 3.99 | -0.28 | -0.44 | -0.368 |
| RABL2A | 0.689 | 1.7 | 0.76 | 0.566 | 0.608 |
| TRMO | -0.257 | 2.1 | -0.102 | -0.106 | -0.287 |
| HLX | -0.171 | 1.58 | 0.0105 | 0.245 | -0.341 |
